Measurements reported in the supplement of paper PMC10849652.
Some of the results follow.

Protein sequences, listed by entry. Tags and fused reporters are not part of them. Lines headed by an entry give the natural chain unless they say otherwise; changes in a name come on top.
UniProt P82909: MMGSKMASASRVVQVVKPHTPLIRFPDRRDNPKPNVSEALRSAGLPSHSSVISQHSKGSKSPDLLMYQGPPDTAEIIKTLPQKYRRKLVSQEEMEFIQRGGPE
UniProt Q15390: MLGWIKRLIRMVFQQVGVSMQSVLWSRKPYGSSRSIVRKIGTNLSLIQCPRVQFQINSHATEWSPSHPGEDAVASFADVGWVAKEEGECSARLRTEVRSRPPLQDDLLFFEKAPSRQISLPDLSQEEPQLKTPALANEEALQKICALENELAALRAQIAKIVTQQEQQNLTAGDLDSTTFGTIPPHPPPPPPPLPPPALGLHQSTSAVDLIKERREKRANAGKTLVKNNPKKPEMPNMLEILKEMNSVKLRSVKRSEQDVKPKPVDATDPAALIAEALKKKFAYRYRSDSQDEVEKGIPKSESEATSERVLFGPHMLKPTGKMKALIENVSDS
UniProt P42285: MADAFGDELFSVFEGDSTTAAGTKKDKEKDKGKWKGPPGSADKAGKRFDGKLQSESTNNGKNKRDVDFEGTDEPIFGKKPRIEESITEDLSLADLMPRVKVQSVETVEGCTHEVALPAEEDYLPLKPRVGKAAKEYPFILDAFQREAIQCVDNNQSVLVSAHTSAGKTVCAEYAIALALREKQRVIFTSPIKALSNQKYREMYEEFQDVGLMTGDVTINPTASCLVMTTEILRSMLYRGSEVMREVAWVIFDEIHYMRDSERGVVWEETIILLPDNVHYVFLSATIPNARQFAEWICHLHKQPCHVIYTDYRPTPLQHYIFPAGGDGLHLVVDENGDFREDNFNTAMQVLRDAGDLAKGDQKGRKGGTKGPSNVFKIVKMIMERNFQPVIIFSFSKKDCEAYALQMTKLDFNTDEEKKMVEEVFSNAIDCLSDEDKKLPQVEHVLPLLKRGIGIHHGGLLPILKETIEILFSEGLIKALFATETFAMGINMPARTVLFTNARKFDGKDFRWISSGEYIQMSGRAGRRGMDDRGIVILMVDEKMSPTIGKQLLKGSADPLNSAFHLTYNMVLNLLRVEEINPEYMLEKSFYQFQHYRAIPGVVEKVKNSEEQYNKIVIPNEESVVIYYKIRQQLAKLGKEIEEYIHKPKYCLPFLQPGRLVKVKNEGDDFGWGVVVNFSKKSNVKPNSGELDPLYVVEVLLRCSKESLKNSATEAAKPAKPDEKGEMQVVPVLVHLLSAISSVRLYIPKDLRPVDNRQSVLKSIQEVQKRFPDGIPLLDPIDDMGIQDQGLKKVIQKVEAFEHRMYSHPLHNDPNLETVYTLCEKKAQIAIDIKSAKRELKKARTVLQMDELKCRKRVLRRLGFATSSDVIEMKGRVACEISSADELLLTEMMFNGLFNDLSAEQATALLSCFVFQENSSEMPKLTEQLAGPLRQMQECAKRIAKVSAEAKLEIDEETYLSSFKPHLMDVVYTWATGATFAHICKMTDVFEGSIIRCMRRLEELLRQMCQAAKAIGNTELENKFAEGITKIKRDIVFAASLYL
UniProt Q8NCE2: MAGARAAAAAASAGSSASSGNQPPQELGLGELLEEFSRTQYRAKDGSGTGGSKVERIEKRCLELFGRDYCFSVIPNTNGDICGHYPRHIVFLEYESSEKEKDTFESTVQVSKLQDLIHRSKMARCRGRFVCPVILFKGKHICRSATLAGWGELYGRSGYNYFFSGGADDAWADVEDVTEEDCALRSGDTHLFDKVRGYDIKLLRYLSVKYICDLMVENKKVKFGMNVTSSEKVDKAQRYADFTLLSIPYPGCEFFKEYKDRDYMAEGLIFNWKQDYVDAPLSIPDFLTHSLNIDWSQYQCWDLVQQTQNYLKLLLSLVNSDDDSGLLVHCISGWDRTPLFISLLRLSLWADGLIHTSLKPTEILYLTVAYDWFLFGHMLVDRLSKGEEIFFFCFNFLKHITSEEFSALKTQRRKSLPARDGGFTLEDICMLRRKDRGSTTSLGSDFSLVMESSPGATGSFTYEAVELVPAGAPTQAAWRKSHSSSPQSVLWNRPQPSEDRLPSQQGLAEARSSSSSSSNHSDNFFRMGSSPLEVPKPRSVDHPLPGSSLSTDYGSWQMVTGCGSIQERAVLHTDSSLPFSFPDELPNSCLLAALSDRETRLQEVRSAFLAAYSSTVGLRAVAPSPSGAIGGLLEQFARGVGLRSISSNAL
UniProt O94776: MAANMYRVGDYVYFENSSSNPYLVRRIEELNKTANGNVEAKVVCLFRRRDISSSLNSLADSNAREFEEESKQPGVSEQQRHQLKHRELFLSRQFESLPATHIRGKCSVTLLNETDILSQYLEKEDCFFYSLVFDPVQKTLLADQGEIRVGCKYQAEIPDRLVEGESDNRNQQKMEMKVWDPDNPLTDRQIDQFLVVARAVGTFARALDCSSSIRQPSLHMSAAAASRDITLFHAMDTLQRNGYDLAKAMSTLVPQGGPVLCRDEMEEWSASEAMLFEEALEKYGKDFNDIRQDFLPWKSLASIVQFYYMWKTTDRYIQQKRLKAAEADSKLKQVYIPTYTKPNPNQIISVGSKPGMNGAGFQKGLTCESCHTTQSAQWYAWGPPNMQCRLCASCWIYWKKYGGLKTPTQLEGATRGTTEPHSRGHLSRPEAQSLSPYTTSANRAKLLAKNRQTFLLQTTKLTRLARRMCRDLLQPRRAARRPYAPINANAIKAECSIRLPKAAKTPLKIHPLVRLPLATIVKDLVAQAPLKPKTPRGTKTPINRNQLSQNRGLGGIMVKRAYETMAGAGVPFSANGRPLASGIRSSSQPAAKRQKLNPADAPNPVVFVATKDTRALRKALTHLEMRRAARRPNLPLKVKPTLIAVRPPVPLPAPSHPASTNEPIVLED

Legend:
Test in all cases: log2 fold change, soluble protein after heating vs DMSO (PISA); higher = thermal stabilisation; K562 lysate, 10 uM; active = over 0.2 and 3.5 SD of the protein, either way, in both replicates (recomputed)
nilotinib = compound: Cc1cn(-c2cc(NC(=O)c3ccc(C)c(Nc4nccc(-c5cccnc5)n4)c3)cc(C(F)(F)F)c2)cn1 [nilotinib]
Method in brief: (§1)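 Values give the log-two fold change in thermal stability against solvent controls, from duplicates. Crude K562 extract at 1 mg/mL protein, made by dounce homogenisation in PBS pH 7.4 with 1 mM MgCl2, was treated with 10 μM compound for 30 min. After 3 min heating across 48°C-58°C, aliquots were pooled, adjusted to 0.5% NP-40 at 4°C and centrifuged at 21,000xg for 90 min. The supernatant was measured by TMTpro 16plex LC-MS/MS with channel sums equalised.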

[1] = compound: Cc1nc(Nc2n[nH]c3c2CN(C(=O)N[C@H](CN(C)C)c2ccccc2)C3(C)C)c2sccc2n1
Method in brief: as §1

dasatinib = compound: Cc1nc(Nc2ncc(C(=O)Nc3c(C)cccc3Cl)s2)cc(N2CCN(CCO)CC2)n1 [dasatinib]
Method in brief: as §1

[2] = compound: Cc1ncc(-c2ccnc(Nc3ccc(S(C)(=O)=O)cc3)n2)n1C(C)C
Method in brief: as §1

[3] = compound: Cn1cc(-c2ccc3c(c2)CCN3C(=O)Cc2cccc(C(F)(F)F)c2)c2c(N)ncnc21
Method in brief: as §1

quisinostat = compound: Cn1cc(CNCC2CCN(c3ncc(C(=O)NO)cn3)CC2)c2ccccc21 [quisinostat]
Method in brief: as §1

tipifarnib = compound: Cn1cncc1[C@@](N)(c1ccc(Cl)cc1)c1ccc2c(c1)c(-c1cccc(Cl)c1)cc(=O)n2C [tipifarnib]
Method in brief: as §1

[4] = compound: NC(=O)Nc1cc(-c2cccc(F)c2)sc1C(=O)N[C@H]1CCCNC1
Method in brief: as §1

[5] = compound: NC(=O)c1cnc(N[C@@H]2CCCC[C@@H]2N)nc1Nc1cccc(-n2nccn2)c1
Method in brief: as §1

[6] = compound: NC1(c2ccc(-c3nc4ccn5c(=O)[nH]nc5c4cc3-c3ccccc3)cc2)CCC1
Method in brief: as §1

[7] = compound: NCC(=O)Nc1ccc(-n2nc(C(F)(F)F)cc2-c2ccc3c(ccc4ccccc43)c2)cc1
Method in brief: as §1

vorinostat = compound: O=C(CCCCCCC(=O)Nc1ccccc1)NO [vorinostat]
Method in brief: as §1

silmitasertib = compound: O=C(O)c1ccc2c(c1)nc(Nc1cccc(Cl)c1)c1ccncc12 [silmitasertib]
Method in brief: as §1

[8] = compound: O=C1NC(=O)C(c2cnc3ccccn23)=C1c1cn2c3c(cc(F)cc13)CN(C(=O)N1CCCCC1)CC2
Method in brief: as §1

entospletinib = compound: c1cn2cc(-c3ccc4cn[nH]c4c3)nc(Nc3ccc(N4CCOCC4)cc3)c2n1 [entospletinib]
Method in brief: as §1

Measured: log2 fold change

MRPS36 (UniProt P82909)
inactive: nilotinib 0.029 | [1] -0.021 | dasatinib 0.238 | [2] 0.1 | [3] -0.003 | quisinostat -0.133 | tipifarnib -0.006 | [4] -0.019 | [5] -0.049 | [6] -0.012 | [7] 0.018 | vorinostat 0.196 | silmitasertib -0.077 | [8] 0.004 | entospletinib -0.034

MRPS12 (UniProt O15235)
inactive: nilotinib -0.026 | [1] 0.061 | dasatinib -0.104 | [2] -0.041 | [3] -0.007 | quisinostat -0.051 | tipifarnib -0.012 | [4] 0.01 | [5] 0.018 | [6] 0.063 | [7] -0.005 | silmitasertib -0.011 | [8] -0.013 | entospletinib -0.046
active: vorinostat -0.35

MT-CO1 (UniProt P00395)
inactive: nilotinib 0.053 | [1] -0.002 | dasatinib -0.018 | [2] -0.078 | [3] -0.005 | quisinostat 0.038 | tipifarnib 0.032 | [4] -0.107 | [5] -0.08 | [6] 0.007 | [7] -0.097 | vorinostat 0.076 | silmitasertib -0.037 | [8] -0.01 | entospletinib 0.114

MRPS23 (UniProt Q9Y3D9)
inactive: nilotinib -0.036 | [1] 0.005 | dasatinib 0.021 | [2] 0.071 | [3] 0.035 | quisinostat 0.046 | tipifarnib 0.039 | [4] -0.019 | [5] 0.036 | [6] 0.069 | [7] 0.008 | vorinostat -0.13 | silmitasertib 0.018 | [8] -0.028 | entospletinib -0.001

MRPL46 (UniProt Q9H2W6)
inactive: nilotinib -0.036 | [1] 0.039 | dasatinib 0.016 | [2] 0.064 | [3] 0.03 | quisinostat -0.034 | tipifarnib 0.05 | [4] 0.03 | [5] -0.023 | [6] 0.035 | [7] 0.021 | vorinostat -0.21 | silmitasertib 0.155 | [8] 0.036 | entospletinib -0.049

MRPL9 (UniProt Q9BYD2)
inactive: nilotinib 0.067 | [1] -0.102 | dasatinib -0.065 | [2] 0.012 | [3] -0.033 | quisinostat -0.035 | tipifarnib -0.012 | [4] 0.05 | [5] 0.023 | [6] -0.048 | [7] 0.044 | vorinostat -0.073 | silmitasertib 0.018 | [8] -0.028 | entospletinib -0.02

MTFR1 (UniProt Q15390)
inactive: nilotinib 0.095 | [1] -0.02 | dasatinib 0 | [2] -0.093 | [3] -0.031 | quisinostat -0.001 | tipifarnib -0.043 | [4] 0.045 | [5] 0.017 | [6] -0.036 | [7] -0.01 | vorinostat -0.014 | silmitasertib -0.016 | [8] 0.011 | entospletinib 0.018

MTREX (UniProt P42285)
inactive: nilotinib -0.001 | [1] -0.002 | dasatinib -0.002 | [2] -0.002 | [3] 0.017 | quisinostat 0.006 | tipifarnib 0.007 | [4] 0.011 | [5] 0 | [6] 0.004 | [7] 0.011 | vorinostat 0.027 | silmitasertib 0.016 | [8] -0.016 | entospletinib 0.003

MRPS24 (UniProt Q96EL2)
inactive: nilotinib -0.041 | [1] -0.001 | dasatinib 0.083 | [2] -0.04 | [3] 0.137 | quisinostat 0.069 | tipifarnib -0.004 | [4] -0.063 | [5] -0.002 | [6] 0 | [7] 0.03 | vorinostat -0.148 | silmitasertib 0.003 | [8] -0.097 | entospletinib -0.021

MRPL48 (UniProt Q96GC5)
inactive: nilotinib 0.046 | [1] -0.088 | dasatinib -0.028 | [2] -0.022 | [3] 0.028 | quisinostat -0.009 | tipifarnib 0.002 | [4] -0.007 | [5] -0.019 | [6] -0.025 | [7] -0.002 | vorinostat -0.061 | silmitasertib 0.014 | [8] 0.01 | entospletinib -0.004

MTMR14 (UniProt Q8NCE2)
inactive: nilotinib -0.008 | [1] 0.024 | dasatinib -0.02 | [2] 0.016 | [3] 0.01 | quisinostat -0.006 | tipifarnib -0.058 | [4] 0.025 | [5] 0.053 | [6] -0.073 | [7] 0.005 | vorinostat -0.092 | silmitasertib 0.064 | [8] -0.036 | entospletinib 0

MRPS16 (UniProt Q9Y3D3)
inactive: nilotinib 0.103 | [1] 0.034 | dasatinib 0.004 | [2] 0 | [3] 0.002 | quisinostat 0.004 | tipifarnib -0.005 | [4] 0.052 | [5] 0.017 | [6] 0.001 | [7] -0.033 | vorinostat -0.102 | silmitasertib 0.02 | [8] 0.007 | entospletinib 0.044

MRPS18C (UniProt Q9Y3D5)
inactive: nilotinib 0.031 | [1] -0.059 | dasatinib -0.033 | [2] -0.011 | [3] -0.078 | quisinostat -0.021 | tipifarnib -0.002 | [4] -0.009 | [5] 0.018 | [6] -0.042 | [7] 0.078 | vorinostat -0.073 | silmitasertib -0.055 | [8] -0.019 | entospletinib 0.037

MRPL54 (UniProt Q6P161)
inactive: nilotinib 0.011 | [1] -0.006 | dasatinib 0.032 | [2] 0.007 | [3] 0.033 | quisinostat -0.108 | tipifarnib 0.03 | [4] 0.003 | [5] -0.014 | [6] 0.005 | [7] 0 | vorinostat -0.003 | silmitasertib 0.024 | [8] -0.041 | entospletinib 0

2 consecutive records out of the list so far, for reference:
MRPL48 (UniProt Q96GC5)
inactive: nilotinib 0.046 | [1] -0.088 | dasatinib -0.028 | [2] -0.022 | [3] 0.028 | quisinostat -0.009 | tipifarnib 0.002 | [4] -0.007 | [5] -0.019 | [6] -0.025 | [7] -0.002 | vorinostat -0.061 | silmitasertib 0.014 | [8] 0.01 | entospletinib -0.004

MTMR14 (UniProt Q8NCE2)
inactive: nilotinib -0.008 | [1] 0.024 | dasatinib -0.02 | [2] 0.016 | [3] 0.01 | quisinostat -0.006 | tipifarnib -0.058 | [4] 0.025 | [5] 0.053 | [6] -0.073 | [7] 0.005 | vorinostat -0.092 | silmitasertib 0.064 | [8] -0.036 | entospletinib 0

Additional records follow:

MRPL38 (UniProt Q96DV4)
inactive: nilotinib 0.009 | [1] -0.009 | dasatinib -0.017 | [2] 0.077 | [3] 0.135 | quisinostat -0.013 | tipifarnib 0.013 | [4] 0.01 | [5] 0.064 | [6] -0.059 | [7] -0.08 | vorinostat -0.077 | silmitasertib 0.105 | [8] -0.033 | entospletinib 0.025

MTA2 (UniProt O94776)
inactive: nilotinib 0.001 | [1] 0.017 | dasatinib -0.019 | [2] -0.011 | [3] 0.046 | quisinostat -0.062 | tipifarnib -0.007 | [4] 0.03 | [5] -0.002 | [6] 0.001 | [7] 0.034 | silmitasertib 0.02 | [8] 0.006 | entospletinib 0.021
active: vorinostat -0.352

MRPS5 (UniProt P82675)
inactive: nilotinib -0.037 | [1] 0.044 | dasatinib 0.009 | [2] -0.001 | [3] 0.042 | quisinostat -0.009 | tipifarnib 0.016 | [4] 0.025 | [5] 0.021 | [6] -0.018 | [7] 0.028 | vorinostat 0.041 | silmitasertib 0.004 | [8] 0.034 | entospletinib 0.045
